Experiment [1] has as its target FLAG-tagged ATP6V0D2 (in 293T cells) (UniProt Q8N8Y2). In words: co-IP; 293T cells cotransfected with FLAG-tagged ATP6V0D2, His-tagged RAB7 and His-tagged VPS41.
Experiment [2] has as its target Flag-tagged ATP6V0D2 (ATPase H+ transporting V0 subunit d2) (UniProt Q8N8Y2). In words: co-IP; 786O cells stably expressing flag-ATP6V0D2 immunoprecipitated by beads; blots for endogenous VPS41, VPS39 and RAB7.

By UniProt entry, the sequences of proteins in these tests, tags left out.
UniProt Q8N8Y2: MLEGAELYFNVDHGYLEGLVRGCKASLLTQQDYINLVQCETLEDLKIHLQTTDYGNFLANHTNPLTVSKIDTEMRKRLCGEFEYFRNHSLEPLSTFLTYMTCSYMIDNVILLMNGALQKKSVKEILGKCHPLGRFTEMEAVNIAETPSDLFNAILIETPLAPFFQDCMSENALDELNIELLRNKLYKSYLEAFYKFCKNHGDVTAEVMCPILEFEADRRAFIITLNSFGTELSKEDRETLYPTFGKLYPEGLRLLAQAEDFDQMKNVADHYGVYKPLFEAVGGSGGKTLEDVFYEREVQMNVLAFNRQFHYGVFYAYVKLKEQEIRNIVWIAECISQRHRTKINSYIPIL
UniProt P51149: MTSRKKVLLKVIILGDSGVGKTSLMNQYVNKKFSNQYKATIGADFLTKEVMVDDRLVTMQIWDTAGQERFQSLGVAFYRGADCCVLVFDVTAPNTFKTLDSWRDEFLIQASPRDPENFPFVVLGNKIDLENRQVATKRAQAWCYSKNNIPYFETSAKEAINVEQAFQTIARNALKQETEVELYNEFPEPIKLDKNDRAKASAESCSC

These are yes or no findings as the source states them, for the method shown. Binding seen in cells or lysates may run through a third protein. Some entries that bind do so weakly or less than the wild type.

“His-tagged RAB7 (in 293T cells) (from UniProt P51149 1-207)”: the binding entry in experiment [1] is “binds”.
“RAB7 (endogenous) (from UniProt P51149 1-207)”: in experiment [2], the binding result is given as “binds”.

For the origin of these results see paper PMC11849937.
